Literature values as cited in PMC10369073, “Production, identification, in silico analysis, and cytoprotection on H2O2-induced HUVECs of novel angiotensin-I-converting enzyme inhibitory peptides from Skipjack tuna roes” (Frontiers in Nutrition, 2023).
The structures given here were assigned with low confidence; some may be wrong.

The chains behind the UniProt entries cited, without tags or fusion partners. Residues count along the entry.
UniProt P12822, 34-1310 limits assumed: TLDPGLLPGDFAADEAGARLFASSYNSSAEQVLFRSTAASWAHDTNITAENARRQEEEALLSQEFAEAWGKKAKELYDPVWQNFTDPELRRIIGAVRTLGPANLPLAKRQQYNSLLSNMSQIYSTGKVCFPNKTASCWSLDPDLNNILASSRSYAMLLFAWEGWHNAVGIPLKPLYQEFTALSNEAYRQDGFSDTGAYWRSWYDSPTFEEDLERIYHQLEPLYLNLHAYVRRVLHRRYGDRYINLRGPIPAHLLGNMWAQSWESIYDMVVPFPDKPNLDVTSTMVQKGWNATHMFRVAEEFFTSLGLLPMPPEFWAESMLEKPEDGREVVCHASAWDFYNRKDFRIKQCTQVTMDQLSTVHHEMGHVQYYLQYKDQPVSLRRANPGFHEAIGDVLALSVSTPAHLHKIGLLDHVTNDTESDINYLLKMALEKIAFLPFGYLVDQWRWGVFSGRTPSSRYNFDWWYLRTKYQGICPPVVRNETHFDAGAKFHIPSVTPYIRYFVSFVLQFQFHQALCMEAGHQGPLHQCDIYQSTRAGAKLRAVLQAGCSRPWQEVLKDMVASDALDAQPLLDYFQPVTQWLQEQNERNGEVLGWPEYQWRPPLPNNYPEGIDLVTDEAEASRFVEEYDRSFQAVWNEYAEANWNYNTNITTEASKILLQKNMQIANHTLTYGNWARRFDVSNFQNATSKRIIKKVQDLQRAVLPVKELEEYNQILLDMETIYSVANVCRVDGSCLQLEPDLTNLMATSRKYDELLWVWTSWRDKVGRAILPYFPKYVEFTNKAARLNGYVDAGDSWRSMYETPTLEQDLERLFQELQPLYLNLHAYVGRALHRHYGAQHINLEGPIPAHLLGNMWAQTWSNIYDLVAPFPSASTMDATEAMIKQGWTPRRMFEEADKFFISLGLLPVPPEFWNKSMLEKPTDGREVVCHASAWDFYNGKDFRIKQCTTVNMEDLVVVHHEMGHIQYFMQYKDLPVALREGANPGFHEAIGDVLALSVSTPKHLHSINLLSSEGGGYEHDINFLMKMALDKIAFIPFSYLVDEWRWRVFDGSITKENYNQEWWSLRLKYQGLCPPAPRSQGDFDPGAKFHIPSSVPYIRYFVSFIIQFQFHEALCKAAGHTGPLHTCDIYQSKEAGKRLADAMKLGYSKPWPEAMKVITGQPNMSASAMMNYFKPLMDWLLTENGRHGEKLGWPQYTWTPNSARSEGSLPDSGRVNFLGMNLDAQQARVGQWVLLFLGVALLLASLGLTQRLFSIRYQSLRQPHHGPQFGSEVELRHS

Key:
ACE [1] = target: T1, ACE (Oryctolagus cuniculus, UniProt P12822); conditions: cited from earlier work; for IC50: read-out: ACEi IC50
Method: The IC50 values of TRP3, TRP6, TRP9, and TRP12 were 0.93 ± 0.07, 0.79 ± 0.06, 0.49 ± 0.06, and 0.67 ± 0.05 mg/mL, respectively, which were lower than those of ACEi peptides, such as LAPPSTRH (1.31 mg/mL) ([61]), GPWGPA ([24]), VAP (1.71 mg/mL) ([62]), MVGSAPGVL (3.09 mg/mL) ([63]), FRKE (6.97 mg/mL) ([18]), FQK (1.73 mg/mL) ([22]), YLRLHF (1.26 mg/mL) ([64]), NFRPQ (4.28 mg/mL) ([17]), and FEM (2.18 mg/mL) ([37]), etc. || Amino acids are another factor affecting the ability of ACEi peptides. […] Moreover, the C- and N-terminal amino acids are believed to play a crucial function in the activity of ACEi peptides ([21]). Yu et al. ([56]) reported that C-terminus (such as Trp, Tyr, Pro, or Phe) and N-terminus (such as Pro, Phe, Trp, or Met) hydrophobic amino acid residues have positive effects on the ACEi ...

ACE [2] = target: T1, ACE; conditions: cited from earlier work
Source text: Peptide size and amino acid sequence are two key factors affecting the ACEi ability of BPs ([17], [21]). Peptide size decides the affinity between BPs and ACE because big polypeptides cannot be accommodated in and access the narrow channel of ACE ([21]). For example, VPP and IPP can easily access and bind the Zn^2+ of ACE channel, but ALPMHIR has low binding scores with ACE because it uncomfortably accesses the narrow channel ([19]). In the experiment, TRP3, TRP6, TRP9, and TRP10 are tetrapeptides or pentapeptides, and small size increases their access to the active channel of ACE, and this ha ...

SMILES | IC50 (ACE [1]) | affinity with ACE (docking) (ACE [2]) | ACEi IC50 (ACE [1])
NCCCC[C@H](NC(=O)[C@H](CO)NC(=O)[C@@H](N)Cc1ccc(O)cc1)C(=O)O | 76 µM | -7.9 kcal/mol | 
NCCCC[C@H](NC(=O)[C@H](CCC(N)=O)NC(=O)[C@@H](N)Cc1ccccc1)C(=O)O |  |  | 1730 µg/mL
NCCCC[C@H](NC(=O)[C@@H]1CCCN1C(=O)[C@@H](N)Cc1ccc(O)cc1)C(=O)O | 38.7 µM |  | 
